For at least one entry, the source does not settle the construct or the ends of the probe. For some assays here: A negative result means that nothing was seen under these conditions.

Data set [1] has as its system GST-OsPLATZ3 (Oryza sativa). The data set can be described thus: competition with a labelled probe. As to conditions: text: failed to bind mutant probe, Table S1 lists it as mutant cold probe.
The subject of data set [2] is GST-OsPLATZ3 (Oryza sativa). The data set can be described thus: EMSA. The following applies: excess unlabelled probe weakened binding.

On to “TATTTCCCTAGCCCTCCCCTGCTTTCTTCC (double strand) [OsAPX9 promoter mutant probe (mutant cold probe)]”, for which the binding result in data set [1] was “no binding”.

Regarding “TATTTAAATAGAAATAAAATGATTTATTCA (double strand) [OsAPX9 promoter AT-rich probe (hot/cold probe)]”, in data set [2], the binding result was “binds”.
